The text below walks through data of article PMC2229861.

In the test the target is GST-Abi1-SH3 (aa 330-480). Put plainly: pull-down; total cellular lysates (1 mg) of transfected 293T cells incubated with 1.5 μM immobilized GST-Abi1, GST-Abi1-SH3 (aa 330-480) or GST; bound proteins immunoblotted with GFP antibody; only the target purified.

These are yes or no findings as the source states them, for the method shown. Binding seen in cells or lysates may run through a third protein. A result given as binding can be weak or reduced; the word gives no strength. Tags and fused reporters may be left off the sequences shown.

B1: GFP-N-terminal fragment of mDia2 (NT-mDia2, aa 1-550) (domain or fragment, UniProt Q9Z207 1-550)
chain: MERHRARALGRDSKSSRRKGLQSAPPAGPYEPGEKRPKLHLNIRTLTDDMLDKFASIRIPGSKKERPPLPHLKTVSGISDSSSLSSETMENNPKALPESEVLKLFEKMMEDMNLNEDKKAPLREKDFGIKKEMVMQYINTASKTGSLRSSRQISPQEFLHELKMGYTDERLFTYLESLRVSLTSHPVSWVQSFGHEGLGLLLDILEKLINGQIQEKVVKKTQHKVIQCLRALMNTQYGLERIMSDKRSLSLLAKAMDPRQPAMMADVVKLLSAVCIVGEESILEEVLEALTSAGEERKIDRFFSIVEGLRHNSVNLQVACMQLINALVTSPDDLDFRLHLRNEFMRCGLKEILPNLKGIKNDGLDIQLKVFDEHKEEDLSEFFHRLEDIRAELDEASDVYSMLWDTVKETRAEGHFLSILQHLLLIRNDRFIREQYFKLIDECVSQIVLHRDGTDPDFTYRKRLDLDLSQFVDVCIDQAKLDEWEEKASEHCKKFEKECTDHQETQAQLQKREAKINELQAELQAFKSQFGALPPGTKIPLQPSVEGEAG
With B1, the binding entry was “binds”.
